According to patent publication US20180044435A1 (GENEFRONTIER, published 2018):
These are yes or no findings as the source states them, for the method shown. Some entries that bind do so weakly or less than the wild type. Tags and fused reporters may be left off the sequences shown.

Columns and labels:
[1] = molecular target: T1, MBP-mouse ADAM28m 527-622 (mouse, UniProt Q9JLN6 527-622); assay: ELISA, antigen immobilized on the plate at 5 µg/ml, 2B6D10 titrated, anti-mouse IgG-HRP, TMB
T1 sequence: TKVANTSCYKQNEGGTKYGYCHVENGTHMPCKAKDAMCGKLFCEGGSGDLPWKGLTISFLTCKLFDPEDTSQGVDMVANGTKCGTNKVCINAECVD

[2] = molecular target: T1, MBP-mouse ADAM28m 527-622; assay: ELISA, antigen immobilized at 5 µg/ml, anti-mouse IgG-HRP, TMB
[3] = molecular target: T2, fusion protein of MBP with region 536-545 of human membrane-anchored form ADAM28 (SEQ ID NO: 2) at its C-terminal (human); assay: Western blotting
T2 sequence: EGGSKYGYCR

[4] = molecular target: T3, fusion protein of MBP with region 536-543 of human membrane-anchored form ADAM28 (SEQ ID NO: 2) at its C-terminal (human); assay: Western blotting
T3 sequence: EGGSKYGY

[5] = molecular target: T4, fusion protein of MBP with region 524-543 of human membrane-anchored form ADAM28 (SEQ ID NO: 2) at its C-terminal (human); assay: Western blotting
T4 sequence: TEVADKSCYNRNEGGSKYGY

[6] = molecular target: T5, fusion protein of MBP with region 534-553 of human membrane-anchored form ADAM28 (SEQ ID NO: 2) at its C-terminal (human); assay: Western blotting
T5 sequence: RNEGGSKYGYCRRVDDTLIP

Measured: binding

B1: anti-human membrane-anchored form ADAM28 antibody 2B6D10 (antibody, V domains shown)
VH: QVQLQQSGAELARPGASVKLSCKASGYTFTSYGISWVKQRTGQGLEWIGEIYPRSGNTYYNEKFKGKATLTADKSSSTAYMELRRLTSEDSAVFFCARENVYSSNYGFAFWGQGTLVTVSA
VL: DVLMTQTPLSLPVSLGDQASISCRSSQNIIHSDGNTYLEWYLQKPGQSPKFLIYKVSNRFSGVPDRFSGSGSGTDFTLKISRVEAEDLGVYYCLQGSHVPWTFGGGTKLEIKR
notes: Mouse monoclonal antibody from a hybridoma, detected with anti-mouse IgG; also called 2B6D10 antibody; clone 2B6D10
binds: [1] | [2] | [3] | [4] | [5] | [6]
